Laboratory results from article PMC4521966.
These are yes or no findings as the source states them, for the method shown. Binding seen in cells or lysates may run through a third protein. These calls come from enrichment with a bait or labelling near it, and not all partners need be listed. Where a sequence is shown, tags or fusion partners need not be part of it. Values belong to the binder of their own block, whether it stands above or below them.

Target: T1, C-terminal FLAG-tagged mouse WDR72 (WD repeat-containing protein 72) (mouse) (UniProt D3YYM4)
T1 sequence: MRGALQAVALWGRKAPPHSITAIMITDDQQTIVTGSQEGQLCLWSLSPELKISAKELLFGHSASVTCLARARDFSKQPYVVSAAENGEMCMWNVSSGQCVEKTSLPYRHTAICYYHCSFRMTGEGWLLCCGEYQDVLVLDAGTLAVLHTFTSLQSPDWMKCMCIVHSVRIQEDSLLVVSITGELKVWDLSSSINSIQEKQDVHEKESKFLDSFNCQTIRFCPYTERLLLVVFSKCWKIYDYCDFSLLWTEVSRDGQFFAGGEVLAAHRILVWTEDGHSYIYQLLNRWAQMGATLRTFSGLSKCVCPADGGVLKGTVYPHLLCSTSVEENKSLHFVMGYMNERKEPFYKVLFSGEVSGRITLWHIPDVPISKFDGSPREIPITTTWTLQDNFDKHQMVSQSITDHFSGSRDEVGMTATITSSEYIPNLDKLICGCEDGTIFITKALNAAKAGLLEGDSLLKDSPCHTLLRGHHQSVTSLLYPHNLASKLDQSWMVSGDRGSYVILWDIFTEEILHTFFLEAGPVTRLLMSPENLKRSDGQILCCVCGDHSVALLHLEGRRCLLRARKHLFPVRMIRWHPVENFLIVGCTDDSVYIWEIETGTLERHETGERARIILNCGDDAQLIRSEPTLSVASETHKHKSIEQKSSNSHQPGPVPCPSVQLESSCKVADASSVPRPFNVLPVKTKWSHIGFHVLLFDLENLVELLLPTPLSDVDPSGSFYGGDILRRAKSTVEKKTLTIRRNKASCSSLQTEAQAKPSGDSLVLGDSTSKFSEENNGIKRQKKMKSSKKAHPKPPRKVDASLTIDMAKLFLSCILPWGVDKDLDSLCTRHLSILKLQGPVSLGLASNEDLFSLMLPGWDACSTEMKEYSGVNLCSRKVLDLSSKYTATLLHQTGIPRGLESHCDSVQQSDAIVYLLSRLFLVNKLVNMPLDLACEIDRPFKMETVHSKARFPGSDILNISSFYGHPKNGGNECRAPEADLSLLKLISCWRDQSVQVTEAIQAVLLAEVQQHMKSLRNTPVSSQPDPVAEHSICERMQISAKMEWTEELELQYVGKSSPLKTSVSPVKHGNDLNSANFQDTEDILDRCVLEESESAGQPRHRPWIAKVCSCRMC
Test: affinity purification with mass spectrometry; C-terminal FLAG-tagged mouse WDR72 overexpressed in HEK293; NP40 lysate; anti-FLAG antibody on protein A Dynabeads, 30 min at room temperature, washed twice; six CBB-stained bands cut from the SDS-PAGE gel, trypsin, LC-MS/MS

B2: ACIN1 (protein, UniProt Q9UKV3 1-1341)
chain: MWRRKHPRTSGGTRGVLSGNRGVEYGSGRGHLGTFEGRWRKLPKMPEAVGTDPSTSRKMAELEEVTLDGKPLQALRVTDLKAALEQRGLAKSGQKSALVKRLKGALMLENLQKHSTPHAAFQPNSQIGEEMSQNSFIKQYLEKQQELLRQRLEREAREAAELEEASAESEDEMIHPEGVASLLPPDFQSSLERPELELSRHSPRKSSSISEEKGDSDDEKPRKGERRSSRVRQARAAKLSEGSQPAEEEEDQETPSRNLRVRADRNLKTEEEEEEEEEEEEDDEEEEGDDEGQKSREAPILKEFKEEGEEIPRVKPEEMMDERPKTRSQEQEVLERGGRFTRSQEEARKSHLARQQQEKEMKTTSPLEEEEREIKSSQGLKEKSKSPSPPRLTEDRKKASLVALPEQTASEEETPPPLLTKEASSPPPHPQLHSEEEIEPMEGPAPAVLIQLSPPNTDADTRELLVSQHTVQLVGGLSPLSSPSDTKAESPAEKVPEESVLPLVQKSTLADYSAQKDLEPESDRSAQPLPLKIEELALAKGITEECLKQPSLEQKEGRRASHTLLPSHRLKQSADSSSSRSSSSSSSSSRSRSRSPDSSGSRSHSPLRSKQRDVAQARTHANPRGRPKMGSRSTSESRSRSRSRSRSASSNSRKSLSPGVSRDSSTSYTETKDPSSGQEVATPPVPQLQVCEPKERTSTSSSSVQARRLSQPESAEKHVTQRLQPERGSPKKCEAEEAEPPAATQPQTSETQTSHLPESERIHHTVEEKEEVTMDTSENRPENDVPEPPMPIADQVSNDDRPEGSVEDEEKKESSLPKSFKRKISVVSATKGVPAGNSDTEGGQPGRKRRWGASTATTQKKPSISITTESLKSLIPDIKPLAGQEAVVDLHADDSRISEDETERNGDDGTHDKGLKICRTVTQVVPAEGQENGQREEEEEEKEPEAEPPVPPQVSVEVALPPPAEHEVKKVTLGDTLTRRSISQQKSGVSITIDDPVRTAQVPSPPRGKISNIVHISNLVRPFTLGQLKELLGRTGTLVEEAFWIDKIKSHCFVTYSTVEEAVATRTALHGVKWPQSNPKFLCADYAEQDELDYHRGLLVDRPSETKTEEQGIPRPLHPPPPPPVQPPQHPRAEQREQERAVREQWAEREREMERRERTRSEREWDRDKVREGPRSRSRSRDRRRKERAKSKEKKSEKKEKAQEEPPAKLLDDLFRKTKAAPCIYWLPLTDSQIVQKEAERAERAKEREKRRKEQEEEEQKEREKEAERERNRQLEREKRREHSRERDRERERERERDRGDRDRDRERDRERGRERDRRDTKRHSRSRSRSTPVRDRGGRR
- binding: binds

B3: IARS (protein, UniProt P41252 1-1262)
chain: MLQQVPENINFPAEEEKILEFWTEFNCFQECLKQSKHKPKFTFYDGPPFATGLPHYGHILAGTIKDIVTRYAHQSGFHVDRRFGWDCHGLPVEYEIDKTLGIRGPEDVAKMGITEYNNQCRAIVMRYSAEWKSTVSRLGRWIDFDNDYKTLYPQFMESVWWVFKQLYDKGLVYRGVKVMPFSTACNTPLSNFESHQNYKDVQDPSVFVTFPLEEDETVSLVAWTTTPWTLPSNLAVCVNPEMQYVKIKDVARGRLLILMEARLSALYKLESDYEILERFPGAYLKGKKYRPLFDYFLKCKENGAFTVLVDNYVKEEEGTGVVHQAPYFGAEDYRVCMDFNIIRKDSLPVCPVDASGCFTTEVTDFAGQYVKDADKSIIRTLKEQGRLLVATTFTHSYPFCWRSDTPLIYKAVPSWFVRVENMVDQLLRNNDLCYWVPELVREKRFGNWLKDARDWTISRNRYWGTPIPLWVSDDFEEVVCIGSVAELEELSGAKISDLHRESVDHLTIPSRCGKGSLHRISEVFDCWFESGSMPYAQVHYPFENKREFEDAFPADFIAEGIDQTRGWFYTLLVLATALFGQPPFKNVIVNGLVLASDGQKMSKRKKNYPDPVSIIQKYGADALRLYLINSPVVRAENLRFKEEGVRDVLKDVLLPWYNAYRFLIQNVLRLQKEEEIEFLYNENTVRESPNITDRWILSFMQSLIGFFETEMAAYRLYTVVPRLVKFVDILTNWYVRMNRRRLKGENGMEDCVMALETLFSVLLSLCRLMAPYTPFLTELMYQNLKVLIDPVSVQDKDTLSIHYLMLPRVREELIDKKTESAVSQMQSVIELGRVIRDRKTIPIKYPLKEIVVIHQDPEALKDIKSLEKYIIEELNVRKVTLSTDKNKYGIRLRAEPDHMVLGKRLKGAFKAVMTSIKQLSSEELEQFQKTGTIVVEGHELHDEDIRLMYTFDQATGGTAQFEAHSDAQALVLLDVTPDQSMVDEGMAREVINRIQKLRKKCNLVPTDEITVYYKAKSEGTYLNSVIESHTEFIFTTIKAPLKPYPVSPSDKVLIQEKTQLKGSELEITLTRGSSLPGPACAYVNLNICANGSEQGGVLLLENPKGDNRLDLLKLKSVVTSIFGVKNTELAVFHDETEIQNQTDLLSLSGKTLCVTAGSAPSLINSSSTLLCQYINLQLLNAKPQECLMGTVGTLLLENPLGQNGLTHQGLLYEAAKVFGLRSRKLKLFLNETQTQEITEDIPVKTLNMKTVYVSVLPTTADF
- binding: binds

Results, then the binder that gave them:

- binding: binds
B1: VARS (protein, UniProt P26640 1-1264)
chain: MSTLYVSPHPDAFPSLRALIAARYGEAGEGPGWGGAHPRICLQPPPTSRTPFPPPRLPALEQGPGGLWVWGATAVAQLLWPAGLGGPGGSRAAVLVQQWVSYADTELIPAACGATLPALGLRSSAQDPQAVLGALGRALSPLEEWLRLHTYLAGEAPTLADLAAVTALLLPFRYVLDPPARRIWNNVTRWFVTCVRQPEFRAVLGEVVLYSGARPLSHQPGPEAPALPKTAAQLKKEAKKREKLEKFQQKQKIQQQQPPPGEKKPKPEKREKRDPGVITYDLPTPPGEKKDVSGPMPDSYSPRYVEAAWYPWWEQQGFFKPEYGRPNVSAANPRGVFMMCIPPPNVTGSLHLGHALTNAIQDSLTRWHRMRGETTLWNPGCDHAGIATQVVVEKKLWREQGLSRHQLGREAFLQEVWKWKEEKGDRIYHQLKKLGSSLDWDRACFTMDPKLSAAVTEAFVRLHEEGIIYRSTRLVNWSCTLNSAISDIEVDKKELTGRTLLSVPGYKEKVEFGVLVSFAYKVQGSDSDEEVVVATTRIETMLGDVAVAVHPKDTRYQHLKGKNVIHPFLSRSLPIVFDEFVDMDFGTGAVKITPAHDQNDYEVGQRHGLEAISIMDSRGALINVPPPFLGLPRFEARKAVLVALKERGLFRGIEDNPMVVPLCNRSKDVVEPLLRPQWYVRCGEMAQAASAAVTRGDLRILPEAHQRTWHAWMDNIREWCISRQLWWGHRIPAYFVTVSDPAVPPGEDPDGRYWVSGRNEAEAREKAAKEFGVSPDKISLQQDEDVLDTWFSSGLFPLSILGWPNQSEDLSVFYPGTLLETGHDILFFWVARMVMLGLKLTGRLPFREVYLHAIVRDAHGRKMSKSLGNVIDPLDVIYGISLQGLHNQLLNSNLDPSEVEKAKEGQKADFPAGIPECGTDALRFGLCAYMSQGRDINLDVNRILGYRHFCNKLWNATKFALRGLGKGFVPSPTSQPGGHESLVDRWIRSRLTEAVRLSNQGFQAYDFPAVTTAQYSFWLYELCDVYLECLKPVLNGVDQVAAECARQTLYTCLDVGLRLLSPFMPFVTEELFQRLPRRMPQAPPSLCVTPYPEPSECSWKDPEAEAALELALSITRAVRSLRADYNLTRIRPDCFLEVADEATGALASAVSGYVQALASAGVVAVLALGAPAPQGCAVALASDRCSIHLQLQGLVDPARELGKLQAKRVEAQRQAQRLRERRAASGYPVKVPLEVQEADEAKLQQTEAELRKVDEAIALFQKML

- binding: binds
B4: RARS (protein, UniProt P54136 1-660)
chain: MDVLVSECSARLLQQEEEIKSLTAEIDRLKNCGCLGASPNLEQLQEENLKLKYRLNILRKSLQAERNKPTKNMINIISRLQEVFGHAIKAAYPDLENPPLLVTPSQQAKFGDYQCNSAMGISQMLKTKEQKVNPREIAENITKHLPDNECIEKVEIAGPGFINVHLRKDFVSEQLTSLLVNGVQLPALGENKKVIVDFSSPNIAKEMHVGHLRSTIIGESISRLFEFAGYDVLRLNHVGDWGTQFGMLIAHLQDKFPDYLTVSPPIGDLQVFYKESKKRFDTEEEFKKRAYQCVVLLQGKNPDITKAWKLICDVSRQELNKIYDALDVSLIERGESFYQDRMNDIVKEFEDRGFVQVDDGRKIVFVPGCSIPLTIVKSDGGYTYDTSDLAAIKQRLFEEKADMIIYVVDNGQSVHFQTIFAAAQMIGWYDPKVTRVFHAGFGVVLGEDKKKFKTRSGETVRLMDLLGEGLKRSMDKLKEKERDKVLTAEELNAAQTSVAYGCIKYADLSHNRLNDYIFSFDKMLDDRGNTAAYLLYAFTRIRSIARLANIDEEMLQKAARETKILLDHEKEWKLGRCILRFPEILQKILDDLFLHTLCDYIYELATAFTEFYDSCYCVEKDRQTGKILKVNMWRMLLCEAVAAVMAKGFDILGIKPVQRM
